Source: PubChem BioAssay AID504467 (National Center for Advancing Translational Sciences (NCATS), 2011)
In all, about 330,000 compounds went through this assay and about 7,700 (2.3%) were called active. The inconclusive results got no clear call from the source; some entries with a clear call stand among them for comparison. The call rests on the fitted dose curve; in most records, active means well fitted inhibition curve with a large enough effect; inconclusive means small, poorly fitted or top-dose-only effect, or effect the other way; inactive means flat fitted curve, though single readings scatter. Potencies beside an inconclusive call are fits to weak or partial responses and may not hold up.

Assay: qHTS screen for small molecules that inhibit ELG1-dependent DNA repair in human embryonic kidney (HEK293T) cells expressing luciferase-tagged ELG1; further: nearly all actives have a fitted effect of over 55% in size
Conditions: HEK293T ELG1-luciferase reporter, luminescence, 16 h, DNA damage induced by 5-fluorouridine; activity change, negative = inhibition: at 46.1 µM (top of the series)
Procedure, shortened: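 5-Fluorouridine DNA damage + compound/DMSO, 2,000 cells/well, 16 h, 37 °C/5% CO2. ONE-Glo, 30 min RT, luminescence. Readout = decrease in reporter signal.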
On the % scale 0 is the no-effect control and ±100 the full control effect; potency means the concentration at half of the fitted maximal effect.

SMILES	Potency	activity change, negative = inhibition
CCOC(=O)CN(Cc1ccccc1)C(=O)OC(C)(C)C	inconclusive: 2.06 µM [activator, partial curve, poor fit]	
COc1cccc(OC)c1OCC(O)CN1CCN(c2ccccc2F)CC1 (stereo unspecified)	inconclusive: 14.6 µM [inhibitor, partial curve, poor fit]	
Clc1cncc(Cl)c1N/N=C/c1ccncc1	inconclusive: 7.31 µM [inhibitor, partial curve]	
CCOC(=O)c1ccccc1NC(=O)CN1C(=O)CCS(=O)(=O)c2ccccc21		inactive: 7.27%
O=C(Nc1nc2ccc(Cl)cc2s1)c1ccco1	inconclusive: 0.82 µM [activator, partial curve]	
COc1ccc(S(=O)(=O)NC2CCCCCC2)cc1C(N)=O		inactive: -6.54%
Cc1ccc(NC(=O)NCc2ccccn2)cc1	inconclusive: 20.6 µM [activator, single point]	
O=C(NN1C(=O)CSC1=S)C(=O)NN1C(=O)CSC1=S	inconclusive: 9.2 µM [inhibitor, partial curve]	
CCN(CC)S(=O)(=O)c1ccc(N2CCOCC2)c(NC(=O)c2ccc3ccccc3c2)c1	active: 14.6 µM	
Cc1sc(C(C2C(=O)CC(C)(C)CC2=O)C2C(=O)CC(C)(C)CC2=O)cc1[N+](=O)[O-]	inconclusive: 20.6 µM [activator, single point]	
NC(=O)C1CCN(C(=O)CCc2nc3sc4c(c3c(=O)[nH]2)CCCC4)CC1		inactive: -2.06%
Cc1cc(C)c(C#N)c(SCc2cn3c(C)cccc3n2)n1	inconclusive: 20.6 µM [activator, partial curve, poor fit]	
CCC1(C)Cc2c(sc3[nH]c(=S)n(Cc4ccccc4)c(=O)c23)CO1 (stereo unspecified)	inconclusive: 23.1 µM [inhibitor, single point]	
Cc1ccc(S(=O)(=O)N2[C@@H](c3cccc(Cl)c3)C(C(=O)O)=CC[C@H]2c2ccc(Cl)c(Cl)c2)cc1		inactive: 15.3%
O=C(CSc1nnc(-c2cccs2)n1Cc1ccco1)Nc1ccc2c(c1)OCO2	active: 14.6 µM	
CCNc1nc2cccnc2s1	inconclusive: 23.1 µM [activator, single point]	
O=C(OCC(=O)N(Cc1ccccc1)Cc1ccccc1)c1ccccc1O		inactive: 4.26%
COc1ccc2c(c1OC)C(=O)OC2Nc1nc(-c2cc3cc(Br)ccc3oc2=O)cs1 (stereo unspecified)	inconclusive: 5.17 µM [activator, partial curve]	
CC1CCN(Cc2c(C(=O)N/N=C/c3cccc(Cl)c3)nnn2-c2nonc2N)CC1		inactive: 1.41%
COc1ccc(C2=NCC(CSc3nnc(-c4ccc5c(c4)OCO5)o3)S2)cc1 (stereo unspecified)	inconclusive: 32.6 µM [inhibitor, single point]	
COC(=O)C1=C(C)NC(C)=C(C(=O)OC)C1C(=O)OCC(=O)Nc1ccc(C(C)=O)cc1	inconclusive: 3.26 µM [inhibitor, full curve, poor fit]	
Cc1nonc1C1CCCN1C(=O)c1cc(COc2ccc(F)cc2F)on1 (stereo unspecified)	inconclusive: 14.6 µM [activator, partial curve]	

Exported as a markdown table: part of the list above.

| SMILES | Potency | activity change, negative = inhibition |
| --- | --- | --- |
| COc1cccc(OC)c1OCC(O)CN1CCN(c2ccccc2F)CC1 (stereo unspecified) | inconclusive: 14.6 µM [inhibitor, partial curve, poor fit] |  |
| Clc1cncc(Cl)c1N/N=C/c1ccncc1 | inconclusive: 7.31 µM [inhibitor, partial curve] |  |
| CCOC(=O)c1ccccc1NC(=O)CN1C(=O)CCS(=O)(=O)c2ccccc21 |  | inactive: 7.27% |
| O=C(Nc1nc2ccc(Cl)cc2s1)c1ccco1 | inconclusive: 0.82 µM [activator, partial curve] |  |
| COc1ccc(S(=O)(=O)NC2CCCCCC2)cc1C(N)=O |  | inactive: -6.54% |
| Cc1ccc(NC(=O)NCc2ccccn2)cc1 | inconclusive: 20.6 µM [activator, single point] |  |
| O=C(NN1C(=O)CSC1=S)C(=O)NN1C(=O)CSC1=S | inconclusive: 9.2 µM [inhibitor, partial curve] |  |
| CCN(CC)S(=O)(=O)c1ccc(N2CCOCC2)c(NC(=O)c2ccc3ccccc3c2)c1 | active: 14.6 µM |  |
| Cc1sc(C(C2C(=O)CC(C)(C)CC2=O)C2C(=O)CC(C)(C)CC2=O)cc1[N+](=O)[O-] | inconclusive: 20.6 µM [activator, single point] |  |
| NC(=O)C1CCN(C(=O)CCc2nc3sc4c(c3c(=O)[nH]2)CCCC4)CC1 |  | inactive: -2.06% |
| Cc1cc(C)c(C#N)c(SCc2cn3c(C)cccc3n2)n1 | inconclusive: 20.6 µM [activator, partial curve, poor fit] |  |
| CCC1(C)Cc2c(sc3[nH]c(=S)n(Cc4ccccc4)c(=O)c23)CO1 (stereo unspecified) | inconclusive: 23.1 µM [inhibitor, single point] |  |
| Cc1ccc(S(=O)(=O)N2[C@@H](c3cccc(Cl)c3)C(C(=O)O)=CC[C@H]2c2ccc(Cl)c(Cl)c2)cc1 |  | inactive: 15.3% |
| O=C(CSc1nnc(-c2cccs2)n1Cc1ccco1)Nc1ccc2c(c1)OCO2 | active: 14.6 µM |  |
| CCNc1nc2cccnc2s1 | inconclusive: 23.1 µM [activator, single point] |  |
| O=C(OCC(=O)N(Cc1ccccc1)Cc1ccccc1)c1ccccc1O |  | inactive: 4.26% |
| COc1ccc2c(c1OC)C(=O)OC2Nc1nc(-c2cc3cc(Br)ccc3oc2=O)cs1 (stereo unspecified) | inconclusive: 5.17 µM [activator, partial curve] |  |
| CC1CCN(Cc2c(C(=O)N/N=C/c3cccc(Cl)c3)nnn2-c2nonc2N)CC1 |  | inactive: 1.41% |
| COC(=O)C1=C(C)NC(C)=C(C(=O)OC)C1C(=O)OCC(=O)Nc1ccc(C(C)=O)cc1 | inconclusive: 3.26 µM [inhibitor, full curve, poor fit] |  |
| Cc1nonc1C1CCCN1C(=O)c1cc(COc2ccc(F)cc2F)on1 (stereo unspecified) | inconclusive: 14.6 µM [activator, partial curve] |  |

Remaining list, next part.

SMILES	Potency	activity change, negative = inhibition
COc1ccccc1N1CCN(C(=O)c2cc(-c3ccc(Br)cc3)on2)CC1	inconclusive: 29.1 µM [inhibitor, single point]	
CCCNC(=O)CN1C(=O)COc2ccc(S(=O)(=O)N3CC(C)CC(C)C3)cc21 (stereo unspecified)		inactive: 3.2%
COc1ccc(Cl)cc1NC(=O)CN(C)C(=O)CCC(=O)c1cc(C)sc1C	inconclusive: 14.6 µM [inhibitor, partial curve, poor fit]	
S=c1[nH]nc(Cc2n[nH]c(=S)n2-c2ccccc2)n1-c1ccccc1		inactive: -0.817%
Cc1ccccc1OCCOC(=O)c1cc(S(=O)(=O)N2CCCCC2)ccc1N1CCOCC1	inconclusive: 13 µM [inhibitor, partial curve]	
CCOC(=O)CC(=O)CSc1nc2c(cc1C#N)CCCCC2	inconclusive: 7.31 µM [activator, partial curve]	
COc1ccccc1NC(=O)C1CCN(C(=O)c2ccc(C(C)(C)C)cc2)CC1	inconclusive: 1.83 µM [activator, full curve, poor fit]	
CC(=O)Nc1ccc(NC(=O)C(=O)c2cn(CC(=O)N3CCCC3)c3ccccc23)cc1		inactive: 7.42%
Cc1ccc(C(=O)N/C(=C\c2cn(-c3ccccc3)nc2-c2ccccc2)C(=O)N2CCOCC2)cc1		inactive: -5.5%
CCN(CC)C(=O)Cn1nc(-c2ccccc2O)nc1SCC(=O)Nc1ccc(OC)cc1	inconclusive: 16.4 µM [inhibitor, single point]	
COC(=O)Cn1c(=NC(=O)CSCC(=O)NC2CCCCC2)sc2cc(OC)ccc21	inconclusive: 25.9 µM [inhibitor, partial curve, poor fit]	
CC(=O)Nc1ccc(NC(=O)c2cc(-c3ccc(C)c(C)c3O)n[nH]2)cc1		inactive: -16.2%
COc1cc(C2NC(=O)C(C#N)=C(S)N2c2ccc(C)cc2)ccc1OC(C)C (stereo unspecified)	inconclusive: 32.6 µM [activator, partial curve, poor fit]	
C=CCn1c2ccccc2c2nnc(SC(CC)C(=O)Nc3nc(C)c(C(=O)OCC)s3)nc21 (stereo unspecified)	inconclusive: 20.6 µM [inhibitor, partial curve, poor fit]	
Cc1sc2ncnc(NCC(c3ccccc3)N(C)C)c2c1C (stereo unspecified)		inactive: -3.28%
O=C(Nc1ccc(N2CCOCC2)cc1)C1CC(=O)N(c2ccc(F)cc2)C1 (stereo unspecified)	inconclusive: 20.6 µM [inhibitor, partial curve]	
CCOC(=O)c1c(NC(=O)CSC(=S)N2CCOCC2)sc(C)c1C	inconclusive: 20.6 µM [activator, single point]	
COc1ccc(NS(=O)(=O)c2cc(NC(=O)c3sccc3C)ccc2N2CCOCC2)cc1	inconclusive: 13 µM [inhibitor, single point]	
C/C(CCc1ccc2c(c1)OCO2)=N\NC(=O)c1ccccc1	inconclusive: 29.1 µM [activator, single point]	
C=CCc1c(C)nc(SC)nc1Nc1ccc(C(=O)O)cc1	inconclusive: 29.1 µM [activator, partial curve, poor fit]	
COc1ccc(N/C=C2/CCCCC2=O)cc1	inconclusive: 20.6 µM [activator, partial curve]	
CCOc1cc(N2CCOCC2)c(OCC)cc1NC(=O)c1ccc(S(=O)(=O)N(C)C)cc1	inconclusive: 2.59 µM [inhibitor, partial curve, poor fit]	

SMILES	Potency	activity change, negative = inhibition
Cc1cc(C)cc(-n2c3nc4ccccc4nc3c3c(=O)n(Cc4ccco4)cnc32)c1		inactive: -8.05%
CC(CO)Nc1nc(SCc2ccccc2)nc2sc3c(c12)CCC3 (stereo unspecified)		inconclusive: 19.3% [activator]
CCOC(=O)c1[nH]c2c(c1-c1ccccc1)C(=O)CC(c1ccc(Cl)cc1)C2 (stereo unspecified)	inconclusive: 20.6 µM [activator, partial curve, poor fit]	
Cc1cc(C(=O)N/N=C/c2ccco2)n[nH]1	inconclusive: 20.6 µM [activator, single point]	
COc1cc(/C=N/NC(=O)CCn2nnc3ccccc32)ccc1O		inactive: 20.7%
O=C(COC(=O)C1C2CC3OC(=O)C1C3C2)Nc1ccccc1 (stereo unspecified)	inconclusive: 0.411 µM [inhibitor, partial curve, poor fit]	
O=C(Nc1ccc(-c2nc3ccccc3s2)c(O)c1)C1=COCCO1	inconclusive: 1.84 µM [activator, full curve]	
CCOC(=O)c1c(C)n(C)c2ccc(OC)c([N+](=O)[O-])c12		inactive: 10.6%
CC(C)N1CCc2c(sc(NC(=O)c3ccc([N+](=O)[O-])o3)c2C(N)=O)C1	inconclusive: 3.66 µM [inhibitor, partial curve, poor fit]	
Cc1cc(-c2ccc(C)c(S(=O)(=O)NC(C)Cc3ccco3)c2)on1 (stereo unspecified)	inconclusive: 32.6 µM [inhibitor, partial curve, poor fit]	
Cc1ccc(S(=O)(=O)Oc2cccc(/C=N/n3cnnc3)c2)cc1	inconclusive: 16.4 µM [inhibitor, partial curve]	
CCN(CC)S(=O)(=O)c1cccc(NC(=O)C(=O)c2c(-c3ccccc3)cc3ccccn23)c1	active: 16.4 µM	
CCOc1ccc(NC(=S)Nc2ccc3nsnc3c2)cc1		inactive: -1.45%
Cc1nc2ccc(NC(=O)c3ccc(F)c(S(=O)(=O)N4CCOCC4)c3)cc2s1	inconclusive: 7.31 µM [inhibitor, partial curve, poor fit]	
COc1cc(CCC(=O)Nc2c(C(=O)N3CCN(c4ccccc4)CC3)oc3ccccc23)on1	inconclusive: 25.9 µM [inhibitor, single point]	
COc1ccccc1NC(=O)c1cc(S(=O)(=O)NCc2ccccc2)ccc1F	active: 16.4 µM	
O=C(O)c1ccc(N=NN2CCCC2)cc1	inconclusive: 18.3 µM [activator, partial curve]	
N/C(=N\OC(=O)Cc1cccs1)c1cccc([N+](=O)[O-])c1	inconclusive: 20.6 µM [activator, single point]	
O=C(Nc1cccc(O)c1)c1ccc(Br)cc1	inconclusive: 7.94 µM [activator, partial curve, poor fit]	
CN(C)C=NC(=O)c1ccc([N+](=O)[O-])c(CS(=O)(=O)c2ccc(Cl)cc2)c1		inactive: -7.31%
COc1ccc(-c2cccc(NS(=O)(=O)c3ccccc3[N+](=O)[O-])c2)nn1		inactive: 14.9%
CCN1C(=NCCc2ccc([N+](=O)[O-])cc2)N[C@@H](c2ccccc2)[C@H](C(=O)OC)[C@H]1C	inconclusive: 10.3 µM [activator, partial curve]	
